The values below come from the supplement of paper PMC12819154, “High-throughput peptide-centric local stability assay extends protein–ligand identification to membrane proteins, tissues and bacteria” (Nature Structural & Molecular Biology, 2025).

Sequences of proteins named here, by UniProt entry; tags and fusion partners are left off. A change or cut given only in a name is not applied to a line headed by its entry.
UniProt Q3UYI5: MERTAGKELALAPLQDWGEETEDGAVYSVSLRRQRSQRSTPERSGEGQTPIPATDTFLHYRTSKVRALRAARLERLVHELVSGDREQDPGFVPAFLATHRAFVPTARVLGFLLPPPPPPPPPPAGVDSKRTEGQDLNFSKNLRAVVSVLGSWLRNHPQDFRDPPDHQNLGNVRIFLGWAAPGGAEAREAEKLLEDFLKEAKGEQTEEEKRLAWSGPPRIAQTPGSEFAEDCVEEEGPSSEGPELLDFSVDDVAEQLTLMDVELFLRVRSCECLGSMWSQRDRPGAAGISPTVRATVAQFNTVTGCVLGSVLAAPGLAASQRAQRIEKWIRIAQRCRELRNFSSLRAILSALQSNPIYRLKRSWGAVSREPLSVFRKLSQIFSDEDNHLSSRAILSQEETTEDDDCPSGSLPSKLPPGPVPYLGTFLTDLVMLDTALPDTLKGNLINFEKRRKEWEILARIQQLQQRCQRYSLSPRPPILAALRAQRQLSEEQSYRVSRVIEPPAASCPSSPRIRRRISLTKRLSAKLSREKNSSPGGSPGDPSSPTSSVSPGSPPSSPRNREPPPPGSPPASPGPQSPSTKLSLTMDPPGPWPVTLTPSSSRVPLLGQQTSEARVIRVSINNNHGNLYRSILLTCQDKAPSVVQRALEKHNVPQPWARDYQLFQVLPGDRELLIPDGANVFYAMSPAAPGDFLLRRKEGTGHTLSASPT
UniProt Q3UGC7, whole entry: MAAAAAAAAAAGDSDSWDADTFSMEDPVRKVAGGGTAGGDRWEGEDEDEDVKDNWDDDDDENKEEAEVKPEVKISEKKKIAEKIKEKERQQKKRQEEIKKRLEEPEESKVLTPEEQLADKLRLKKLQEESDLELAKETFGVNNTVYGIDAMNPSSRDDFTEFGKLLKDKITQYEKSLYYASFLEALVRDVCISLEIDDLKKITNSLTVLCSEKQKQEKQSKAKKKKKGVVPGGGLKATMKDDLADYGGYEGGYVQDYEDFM
UniProt Q3UBZ5: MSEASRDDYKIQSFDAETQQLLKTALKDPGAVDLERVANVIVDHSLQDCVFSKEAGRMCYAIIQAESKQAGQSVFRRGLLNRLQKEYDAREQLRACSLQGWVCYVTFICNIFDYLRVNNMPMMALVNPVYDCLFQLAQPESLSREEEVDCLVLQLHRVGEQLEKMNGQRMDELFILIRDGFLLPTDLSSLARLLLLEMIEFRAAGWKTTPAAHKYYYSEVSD
UniProt Q4VBF2: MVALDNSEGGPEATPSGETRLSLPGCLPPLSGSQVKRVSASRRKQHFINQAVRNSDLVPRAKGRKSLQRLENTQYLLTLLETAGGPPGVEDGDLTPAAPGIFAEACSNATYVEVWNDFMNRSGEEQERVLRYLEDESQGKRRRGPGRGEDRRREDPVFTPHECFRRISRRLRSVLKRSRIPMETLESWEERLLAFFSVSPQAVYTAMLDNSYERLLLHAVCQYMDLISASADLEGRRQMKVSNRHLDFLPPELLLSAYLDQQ
UniProt Q505F1: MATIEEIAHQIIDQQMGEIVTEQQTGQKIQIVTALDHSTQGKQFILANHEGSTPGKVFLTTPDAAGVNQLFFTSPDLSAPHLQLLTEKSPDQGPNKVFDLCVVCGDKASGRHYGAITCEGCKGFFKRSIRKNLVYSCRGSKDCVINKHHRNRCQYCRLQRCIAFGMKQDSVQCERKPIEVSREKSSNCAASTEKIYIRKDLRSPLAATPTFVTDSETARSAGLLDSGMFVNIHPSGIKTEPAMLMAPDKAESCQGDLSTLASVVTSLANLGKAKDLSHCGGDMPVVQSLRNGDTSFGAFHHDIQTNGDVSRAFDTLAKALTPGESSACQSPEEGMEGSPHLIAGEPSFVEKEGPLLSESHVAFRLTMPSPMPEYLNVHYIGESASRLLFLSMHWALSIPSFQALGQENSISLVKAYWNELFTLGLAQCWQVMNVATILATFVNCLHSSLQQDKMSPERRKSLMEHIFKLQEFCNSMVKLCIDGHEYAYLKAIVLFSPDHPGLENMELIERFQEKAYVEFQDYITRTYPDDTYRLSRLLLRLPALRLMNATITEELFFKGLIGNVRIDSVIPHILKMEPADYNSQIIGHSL
UniProt Q3V3N7: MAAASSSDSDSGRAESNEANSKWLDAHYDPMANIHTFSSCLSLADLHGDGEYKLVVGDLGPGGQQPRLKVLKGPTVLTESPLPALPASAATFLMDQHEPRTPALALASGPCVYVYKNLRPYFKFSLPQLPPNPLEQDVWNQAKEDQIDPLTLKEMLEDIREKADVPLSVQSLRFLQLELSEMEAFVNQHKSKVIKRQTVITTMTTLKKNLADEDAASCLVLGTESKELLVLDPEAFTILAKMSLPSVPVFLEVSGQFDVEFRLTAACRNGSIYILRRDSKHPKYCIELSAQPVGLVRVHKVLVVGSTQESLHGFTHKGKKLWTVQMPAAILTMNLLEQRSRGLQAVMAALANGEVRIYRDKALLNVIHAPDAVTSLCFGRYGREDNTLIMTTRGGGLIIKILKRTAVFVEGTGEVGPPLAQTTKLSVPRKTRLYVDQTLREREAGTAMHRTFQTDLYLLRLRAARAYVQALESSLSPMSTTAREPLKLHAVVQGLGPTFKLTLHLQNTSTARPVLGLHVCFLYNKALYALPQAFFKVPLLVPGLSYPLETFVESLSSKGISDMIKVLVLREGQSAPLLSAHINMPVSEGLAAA
UniProt Q3UUI3: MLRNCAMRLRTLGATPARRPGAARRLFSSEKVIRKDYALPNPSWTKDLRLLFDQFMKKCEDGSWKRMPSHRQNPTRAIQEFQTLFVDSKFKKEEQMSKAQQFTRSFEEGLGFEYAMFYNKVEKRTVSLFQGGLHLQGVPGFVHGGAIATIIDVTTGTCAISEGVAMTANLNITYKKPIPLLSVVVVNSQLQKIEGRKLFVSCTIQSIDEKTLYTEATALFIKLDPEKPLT
UniProt Q3UMF0, whole entry: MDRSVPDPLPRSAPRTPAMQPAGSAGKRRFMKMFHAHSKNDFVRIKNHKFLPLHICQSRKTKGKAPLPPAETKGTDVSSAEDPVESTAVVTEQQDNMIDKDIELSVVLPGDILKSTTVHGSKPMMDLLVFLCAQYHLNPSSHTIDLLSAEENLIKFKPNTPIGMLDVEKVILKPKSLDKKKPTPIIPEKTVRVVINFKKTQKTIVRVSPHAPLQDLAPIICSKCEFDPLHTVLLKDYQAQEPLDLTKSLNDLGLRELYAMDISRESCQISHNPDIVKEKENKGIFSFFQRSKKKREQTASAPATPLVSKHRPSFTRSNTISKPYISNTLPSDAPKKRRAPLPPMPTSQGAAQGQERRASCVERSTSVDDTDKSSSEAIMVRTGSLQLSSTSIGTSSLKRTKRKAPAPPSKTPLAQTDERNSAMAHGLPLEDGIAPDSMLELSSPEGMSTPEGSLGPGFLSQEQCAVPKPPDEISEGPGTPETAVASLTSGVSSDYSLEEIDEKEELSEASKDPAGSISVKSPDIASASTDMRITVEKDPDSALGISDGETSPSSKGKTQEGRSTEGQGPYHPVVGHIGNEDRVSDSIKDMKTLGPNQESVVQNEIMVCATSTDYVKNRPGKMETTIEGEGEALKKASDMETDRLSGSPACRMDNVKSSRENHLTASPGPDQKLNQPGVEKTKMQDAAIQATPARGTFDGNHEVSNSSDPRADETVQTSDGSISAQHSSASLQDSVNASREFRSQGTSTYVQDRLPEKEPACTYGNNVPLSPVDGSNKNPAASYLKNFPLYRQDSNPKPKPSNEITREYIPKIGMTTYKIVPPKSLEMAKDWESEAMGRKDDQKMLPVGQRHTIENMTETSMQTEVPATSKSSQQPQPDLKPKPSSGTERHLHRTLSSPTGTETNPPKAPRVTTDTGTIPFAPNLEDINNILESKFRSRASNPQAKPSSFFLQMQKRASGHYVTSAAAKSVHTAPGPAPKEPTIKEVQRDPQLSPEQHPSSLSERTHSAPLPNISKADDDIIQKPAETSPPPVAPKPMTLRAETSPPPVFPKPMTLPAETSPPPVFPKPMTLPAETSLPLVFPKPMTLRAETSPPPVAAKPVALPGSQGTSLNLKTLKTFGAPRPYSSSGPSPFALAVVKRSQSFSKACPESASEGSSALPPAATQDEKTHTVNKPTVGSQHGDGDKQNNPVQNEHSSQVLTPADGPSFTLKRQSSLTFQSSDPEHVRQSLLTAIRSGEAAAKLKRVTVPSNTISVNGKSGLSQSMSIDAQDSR
UniProt Q3U564: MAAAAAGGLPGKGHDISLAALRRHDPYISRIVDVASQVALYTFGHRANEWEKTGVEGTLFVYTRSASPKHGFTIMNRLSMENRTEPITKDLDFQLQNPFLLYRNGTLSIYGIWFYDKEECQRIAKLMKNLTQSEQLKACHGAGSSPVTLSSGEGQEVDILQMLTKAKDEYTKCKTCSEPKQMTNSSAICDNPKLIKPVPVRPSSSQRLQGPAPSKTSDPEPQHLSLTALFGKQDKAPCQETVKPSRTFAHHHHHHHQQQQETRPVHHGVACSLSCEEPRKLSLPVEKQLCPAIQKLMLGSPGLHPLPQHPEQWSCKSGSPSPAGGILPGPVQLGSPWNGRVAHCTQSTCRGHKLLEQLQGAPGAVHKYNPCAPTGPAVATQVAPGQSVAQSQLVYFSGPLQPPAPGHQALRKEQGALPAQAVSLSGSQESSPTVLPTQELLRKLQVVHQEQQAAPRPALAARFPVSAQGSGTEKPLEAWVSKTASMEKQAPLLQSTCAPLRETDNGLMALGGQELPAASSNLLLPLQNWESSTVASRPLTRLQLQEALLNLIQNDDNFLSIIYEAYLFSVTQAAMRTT
UniProt Q3UH06: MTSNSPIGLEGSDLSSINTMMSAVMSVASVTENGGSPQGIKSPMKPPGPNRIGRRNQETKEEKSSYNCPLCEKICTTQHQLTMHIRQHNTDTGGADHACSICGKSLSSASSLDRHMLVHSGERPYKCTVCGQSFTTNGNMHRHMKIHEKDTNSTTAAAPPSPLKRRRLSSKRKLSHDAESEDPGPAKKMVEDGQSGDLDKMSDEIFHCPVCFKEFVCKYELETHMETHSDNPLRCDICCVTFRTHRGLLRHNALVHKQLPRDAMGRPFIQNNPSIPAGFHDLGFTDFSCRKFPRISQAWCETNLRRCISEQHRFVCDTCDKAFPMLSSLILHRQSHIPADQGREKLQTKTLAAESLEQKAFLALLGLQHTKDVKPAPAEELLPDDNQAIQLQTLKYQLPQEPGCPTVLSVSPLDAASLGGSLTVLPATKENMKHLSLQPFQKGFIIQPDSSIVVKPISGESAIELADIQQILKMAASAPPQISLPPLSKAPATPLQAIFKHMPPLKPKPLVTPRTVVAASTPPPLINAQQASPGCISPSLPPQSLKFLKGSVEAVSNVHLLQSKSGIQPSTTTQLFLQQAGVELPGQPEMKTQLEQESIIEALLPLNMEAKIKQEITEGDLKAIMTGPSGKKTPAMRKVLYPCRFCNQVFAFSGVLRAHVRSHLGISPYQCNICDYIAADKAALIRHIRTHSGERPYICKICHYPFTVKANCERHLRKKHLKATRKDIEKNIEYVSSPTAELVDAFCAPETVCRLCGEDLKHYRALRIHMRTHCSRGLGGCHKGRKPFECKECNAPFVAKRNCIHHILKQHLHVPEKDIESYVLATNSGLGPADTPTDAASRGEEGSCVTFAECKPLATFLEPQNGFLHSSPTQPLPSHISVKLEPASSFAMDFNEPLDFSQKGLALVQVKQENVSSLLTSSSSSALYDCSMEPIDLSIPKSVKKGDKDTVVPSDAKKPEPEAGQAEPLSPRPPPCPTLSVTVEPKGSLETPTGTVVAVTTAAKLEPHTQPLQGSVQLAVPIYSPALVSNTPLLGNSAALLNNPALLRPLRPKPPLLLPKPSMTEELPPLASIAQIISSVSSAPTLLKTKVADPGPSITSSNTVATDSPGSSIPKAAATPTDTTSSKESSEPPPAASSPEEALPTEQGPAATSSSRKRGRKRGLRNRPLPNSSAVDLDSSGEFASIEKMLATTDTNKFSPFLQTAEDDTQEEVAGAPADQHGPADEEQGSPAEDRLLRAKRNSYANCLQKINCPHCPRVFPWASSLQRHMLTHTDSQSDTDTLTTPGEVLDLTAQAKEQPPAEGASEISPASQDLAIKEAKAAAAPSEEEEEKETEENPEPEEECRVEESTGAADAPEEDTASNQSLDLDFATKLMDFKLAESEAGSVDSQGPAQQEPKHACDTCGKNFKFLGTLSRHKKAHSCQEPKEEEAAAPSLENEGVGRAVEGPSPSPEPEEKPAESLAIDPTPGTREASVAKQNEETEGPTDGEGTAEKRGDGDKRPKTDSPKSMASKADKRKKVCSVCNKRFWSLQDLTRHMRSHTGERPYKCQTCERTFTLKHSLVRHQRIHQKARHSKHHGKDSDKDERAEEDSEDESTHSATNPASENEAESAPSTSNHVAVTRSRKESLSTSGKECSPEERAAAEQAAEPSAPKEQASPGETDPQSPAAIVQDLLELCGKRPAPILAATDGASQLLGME

The other results are listed elsewhere or left out. Small differences around the control level are noise.

Compound in this test: CN[C@@H]1C[C@H]2O[C@@](C)([C@@H]1OC)n1c3ccccc3c3c4c(c5c6ccccc6n2c5c31)C(=O)NC4 [staurosporine]
Kind of test: log2 fold change of tryptic peptide abundance, ligand vs vehicle (limited proteolysis) (log2 ratio); higher = more trypsin-susceptible (destabilized). The conditions noted are these: ligand concentration: 20 uM; sample: mouse liver crude lysate; replicate design: treated separately.
For the target “UniProt Q3UY23 (peptide sequence: AALEGDPVALENLKR, peptide start residue: 39)”, the log2 fold change amounted to 0.589.
Turning to “UniProt Q3UYI5 (peptide sequence: GNLINFEKR, peptide start residue: 442)”, the log2 fold change came out at 0.406.
Consider “UniProt Q3U3W5 (peptide sequence: LNPDFNDAKENFYR, peptide start residue: 130)”, for which the log2 fold change is -0.33.
The same measure for “UniProt Q3UGC7 (peptide sequence: LLKDKITQYEK, peptide start residue: 165)”: -0.423.
The same measure for “UniProt Q3UBZ5 (peptide sequence: MCYAIIQAESK, peptide start residue: 58)”: 0.148.
As for “UniProt Q3V1V3 (peptide sequence: LNYAVDKR, peptide start residue: 49)”, the log2 fold change was -0.227.
The same measure for “UniProt Q3URS9 (peptide sequence: EKRPEAAALGLFHR, peptide start residue: 43)”: 0.418.
The same measure for “UniProt Q505D1 (peptide sequence: DGKTPLHMTALHGR, peptide start residue: 305)”: -0.662.
Turning to “UniProt Q3UHD6 (peptide sequence: KMVMYLNMLR, peptide start residue: 408)”, the log2 fold change came out at 0.383.
On to “UniProt Q3U3R4 (peptide sequence: RKVGGAEHSPASQPSLAR, peptide start residue: 18)”, for which the log2 fold change is 0.603.
As for “UniProt Q4VBF2 (peptide sequence: REDPVFTPHECFR, peptide start residue: 153)”, the log2 fold change was 0.388.
The same measure for “UniProt Q505F1 (peptide sequence: EGPLLSESHVAFR, peptide start residue: 352)”: 0.383; for “UniProt Q3V3N7 (peptide sequence: GGGLIIK, peptide start residue: 394)”: 0.139; for “UniProt Q5DTT3 (peptide sequence: DAPVPTNTKR, peptide start residue: 425)”: -0.766.
As for “UniProt Q3UFB2 (peptide sequence: VENMQQNMIR, peptide start residue: 398)”, the log2 fold change turned out to be 0.503.
With “UniProt Q4LDD4 (peptide sequence: TGPPYPQASLLAK, peptide start residue: 162)”, the log2 fold change worked out at 0.692.
With “UniProt Q3UUI3 (peptide sequence: KCEDGSWK, peptide start residue: 58)”, the log2 fold change was -0.478.
The same measure for “UniProt Q3V0J1 (peptide sequence: FTAPTGVSQPVGK, peptide start residue: 188)”: -0.284; for “UniProt Q5DU00 (peptide sequence: SSHLSQPVVK, peptide start residue: 8)”: -0.202.
As to “UniProt Q3UUQ7 (peptide sequence: DSAVQSLR, peptide start residue: 796)”, the log2 fold change worked out at 0.305.
For “UniProt Q4VAC9 (peptide sequence: RPGSSRPASWTLFDLPGPR, peptide start residue: 896)”, the log2 fold change is -0.302.
As to “UniProt Q3UMF0 (peptide sequence: SLNDLGLR, peptide start residue: 248)”, the log2 fold change is -0.147.
For “UniProt Q3UPR7 (peptide sequence: AKDFVFALLGLVHR, peptide start residue: 63)”, the log2 fold change was -0.413.
With “UniProt Q3U564 (peptide sequence: KLSLPVEK, peptide start residue: 280)”, the log2 fold change amounted to 0.313.
For “UniProt Q3UMY5 (peptide sequence: HKDVIVNQAK, peptide start residue: 215)”, the log2 fold change is -0.682.
Under “UniProt Q3USB7 (peptide sequence: KTVSFSSMPSEKK, peptide start residue: 93)” stands 0.209; under “UniProt Q4VBD2 (peptide sequence: FTICGNRID, peptide start residue: 556)”, 0.244.
The same measure for “UniProt Q3UV70 (peptide sequence: VTLGQMHGLLTER, peptide start residue: 453)”: 0.208.
Under “UniProt Q3UJB9 (peptide sequence: ETCSTLTESPR, peptide start residue: 841)” stands -0.351.
With “UniProt Q5DTY9 (peptide sequence: YILDYLR, peptide start residue: 91)”, the log2 fold change was determined as 0.115.
The same measure for “UniProt Q3UH06 (peptide sequence: IKQEITEGDLK, peptide start residue: 612)”: 0.369.
